Measured data: PubChem BioAssay AID1259254 (NCATS, 2017)
The deposit covers about 59,000 reagents; shown is an unselected part. In the full data, about 1,550 (2.6%) are marked active. 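G2 share is only a proxy for re-replication; each gene was hit by three separate siRNAs, and active genes were retested.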 The raw values are shown without normalisation. The numbers tell different reagents against one gene apart. Reagent sequences are not shown. Not given: the amount of reagent.

Test: 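Genome-wide screen for genes that prevent DNA re-replication in cancer cells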 (primary screen)
Cells: human HCT116 colorectal cancer cells
Reagents: single siRNA against human genes
Duration: 3 days
Read-out: 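Imaged Hoechst DNA stain sorts each cell into a cycle phase by DNA amount; per plate, G2 fraction set to 0% for non-targeting and 100% for GMNN siRNA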
Direction: G2 robust z-score and G2 cells, % of GMNN control: higher = more G2 cells, more excess DNA replication; raw share of cells in G2: higher = larger share of cells with G2 DNA content
Active means: 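Active siRNAs have a G2 robust z of 5 or more median absolute deviations over the median, which in these data means about 38% or higher of GMNN control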

no.	Target gene	siRNA no.	G2 robust z-score	G2 cells, % of GMNN control	raw share of cells in G2 (%)	Call
1	SLC49A3	1	-0.549	-0.892	3.81	inactive
2	SLC49A3	2	1.92	16.5	8.34	inactive
3	SLC49A3	3	-0.119	2.13	3.05	inactive
4	DPYSL5	1	-0.57	-1.05	3.9	inactive
5	DPYSL5	2	0.264	4.82	6.17	inactive
6	DPYSL5	3	4.94	37.7	22.9	inactive
7	TIFAB	1	0.879	9.15	7.16	inactive
8	TIFAB	2	-0.792	-2.61	2.43	inactive
9	TIFAB	3	0.367	5.55	5.01	inactive
10	ZMYND10	1	-0.763	-2.4	1.94	inactive
11	ZMYND10	2	0.897	9.28	10.1	inactive
12	ZMYND10	3	-0.698	-1.94	3.02	inactive
13	SH3BP1	1	0.674	7.71	9.66	inactive
14	SH3BP1	2	2.25	18.8	10.4	inactive
15	SH3BP1	3	0.197	4.35	5.41	inactive

The list goes on (4 carried over from the part before).
no.	Target gene	siRNA no.	G2 robust z-score	G2 cells, % of GMNN control	raw share of cells in G2 (%)	Call
12	ZMYND10	3	-0.698	-1.94	3.02	inactive
13	SH3BP1	1	0.674	7.71	9.66	inactive
14	SH3BP1	2	2.25	18.8	10.4	inactive
15	SH3BP1	3	0.197	4.35	5.41	inactive
16	P2RY4	1	-0.647	-1.58	5.28	inactive
17	P2RY4	2	-1.25	-5.84	2.47	inactive
18	P2RY4	3	-0.284	0.972	3.57	inactive
19	CIAO2A	1	-0.122	2.11	4.81	inactive
20	CIAO2A	2	0.491	6.42	5.36	inactive
21	CIAO2A	3	-0.105	2.23	3.08	inactive
22	PPT2	1	1.85	16	10.2	inactive
23	PPT2	2	-0.555	-0.94	4.17	inactive
24	PPT2	3	-1.12	-4.89	3.53	inactive
25	DAP3	1	-0.958	-3.77	3.46	inactive
26	DAP3	2	0.018	3.09	5.12	inactive
27	DAP3	3	1.08	10.6	7.09	inactive
28	RADIL	1	-0.469	-0.333	4.4	inactive
29	RADIL	2	-0.949	-3.71	2.6	inactive
30	RADIL	3	-0.659	-1.67	2.6	inactive
